Test results from the supplement of paper PMC3682954.
Where “and” joins values, the source holds several entries; their conditions need not be identical. Equal values may be shown once. Where a name gives a salt, the structure may show the parent alone. ± gives the standard deviation of the averaged measurements. Some of the results follow. Single values are uncertain, as repeats are few or missing.

Test system: RAW 264.7
Assay: HMGB1-induced TNF-alpha production relative to HMGB1-stimulated control; higher = more TNF-alpha secretion (less inhibition)
Settings: stimulus: HMGB1 5 ug/ml, 18 h
[1] = compound concentration: 1 ug/ml

SMILES | HMGB1-induced TNF-alpha production (compound concentration: 3 uM) | HMGB1-induced TNF-alpha production [1]
CC(N)C(=O)OC(C)(C)Cc1ccc(Cl)cc1 (stereo not given) [Alaproclate hydrochloride] | 91.4% | –
CC(N)C(=O)OC(C)(C)Cc1ccc(Cl)cc1 (stereo not given) | 86.4% | –
C[C@H]1[C@H](OC(=O)CCC(=O)O)O[C@@H]2O[C@@]3(C)CC[C@H]4[C@H](C)CC[C@@H]1[C@@]24OO3 [Artesunate] | 110% | –
C[C@H]1[C@H](OC(=O)CCC(=O)O)O[C@@H]2O[C@@]3(C)CC[C@H]4[C@H](C)CC[C@@H]1[C@@]24OO3 | 121% | –
COC(=O)C1=C(C)NC(C)=C(C(=O)OCCN(C)Cc2ccccc2)C1c1cccc([N+](=O)[O-])c1 (stereo not given) [Nicardipine hydrochloride] | 87.1 ± 36% | –
COC(=O)C1=C(C)NC(C)=C(C(=O)OCCN(C)Cc2ccccc2)C1c1cccc([N+](=O)[O-])c1 (stereo not given) | 87.6% | –
COC(=O)C1=C(C)NC(C)=C(C(=O)OCCN(C)Cc2ccccc2)C1c1cccc([N+](=O)[O-])c1 (stereo not given) [Nicardipine] | 83.7% | –
CC(=O)N[C@H](Cc1ccc2ccccc2c1)C(=O)O [(R)-N-Acetyl-2-naphthylalanine] | – | 77.3%
COc1cccc(-c2oc3cc(OC)ccc3c(=O)c2O)c1 [3',7-Dimethoxy-3-hydroxyflavone] | – | 85%
CN1CCN(c2c(F)cc3c(=O)c(C(=O)O)cn4c3c2SCC4)CC1 | 101% | –
CN1CCN(c2c(F)cc3c(=O)c(C(=O)O)cn4c3c2SCC4)CC1 [Rufloxacin] | 85.4 ± 25% | –
COC(=O)C1=C(C)NC(C)=C(C(=O)OCC(C)C)C1c1ccccc1[N+](=O)[O-] (stereo not given) [Nisoldipine] | 90.3 ± 8.7% | –
COC(=O)C1=C(C)NC(C)=C(C(=O)OCC(C)C)C1c1ccccc1[N+](=O)[O-] (stereo not given) | 73.8 ± 26% | –
O=c1cc(-c2ccc(O)cc2)oc2cc(O)ccc12 [4',7-Dihydroxyflavone] | – | 79.7%
O=C1CCc2ccc(OCCCCN3CCN(c4cccc(Cl)c4Cl)CC3)cc2N1 [Aripiprazole] | 103 ± 6.3% | –
O=C1CCc2ccc(OCCCCN3CCN(c4cccc(Cl)c4Cl)CC3)cc2N1 | 86.2 ± 21% | –
CN(C)CCOC(c1ccc(Cl)cc1)c1ccccn1 (stereo not given) | 100% | –
CN(C)CCOC(c1ccc(Cl)cc1)c1ccccn1 (stereo not given) [Carbinoxamine maleate salt] | 111% | –
NC(=O)NC1NC(=O)NC1=O (stereo not given) | 94.1% | –
NC(=O)NC1NC(=O)NC1=O (stereo not given) [Allantoin] | 95.9% | –
CCCCCCCCCCCC1=C(O)C(=O)C=C(O)C1=O [Embelin] | – | 77.2%
COc1c2ccoc2cc2oc(=O)ccc12 [Bergapten; 5-Methoxypsoralen, 99%] | – | 65.8%
COc1c2ccoc2cc2oc(=O)ccc12 | 72.1% | –
COc1ccc(-c2cc(=O)c3c(OC)cccc3o2)cc1 [4',5-Dimethoxyflavone] | – | 95.3%
Cc1cc2c(C(C)C)c(O)c(O)c(/C=N/Nc3nc4ccccc4[nH]c3=O)c2c(O)c1-c1c(C)cc2c(C(C)C)c(O)c(O)c(/C=N/Nc3nc4ccccc4[nH]c3=O)c2c1O | – | 61.4%
CC(C)NCC(O)c1ccc(O)c(O)c1 (single isomer, unassigned; (-)) [(-)-Isoproterenol hydrochloride] | 82.5 ± 28% | –
O=C1C(O)=C([C@H]2CC[C@H](c3ccc(Cl)cc3)CC2)C(=O)c2ccccc21 [Atovaquone] | 98 ± 40% | –
O=C1C(O)=C([C@H]2CC[C@H](c3ccc(Cl)cc3)CC2)C(=O)c2ccccc21 | 85.6 ± 17% | –

Reformatted comma-delimited: entries from further up
SMILES,HMGB1-induced TNF-alpha production (compound concentration: 3 uM),HMGB1-induced TNF-alpha production [1]
CC(N)C(=O)OC(C)(C)Cc1ccc(Cl)cc1 (stereo not given),86.4%,–
COC(=O)C1=C(C)NC(C)=C(C(=O)OCCN(C)Cc2ccccc2)C1c1cccc([N+](=O)[O-])c1 (stereo not given) [Nicardipine hydrochloride],87.1 ± 36%,–
CN(C)CCOC(c1ccc(Cl)cc1)c1ccccn1 (stereo not given),100%,–
NC(=O)NC1NC(=O)NC1=O (stereo not given),94.1%,–
"COc1ccc(-c2cc(=O)c3c(OC)cccc3o2)cc1 [4',5-Dimethoxyflavone]",–,95.3%

(list continues)

SMILES | HMGB1-induced TNF-alpha production (compound concentration: 3 uM) | HMGB1-induced TNF-alpha production [1]
NCCNS(=O)(=O)c1cccc2c(Cl)cccc12 [A3 hydrochloride] | 86% | –
Cc1ccccc1C(OCCN(C)C)c1ccccc1 (stereo not given) [Orphenadrine hydrochloride] | 94.7 ± 20% | –
Cc1ccccc1C(OCCN(C)C)c1ccccc1 (stereo not given) | 85.1% | –
CN1CCOC(c2ccccc2)c2ccccc2C1 (stereo not given) | 86.7% | –
CN1CCOC(c2ccccc2)c2ccccc2C1 (stereo not given) [Nefopam hydrochloride] | 71.5% | –
N=C(N)NCCCCN [Agmatine sulfate] | 92% | –
CN1CCC(=C2c3ccccc3CCc3sccc32)CC1 | 91.5% | –
CN1CCC(=C2c3ccccc3CCc3sccc32)CC1 [Pizotyline] | 94.4% | –
CN1CCC(=C2c3ccccc3CCc3sccc32)CC1 [Pizotifen malate] | 92.6% | –
CCN(CC)CCOc1ccc(C(=C(Cl)c2ccccc2)c2ccccc2)cc1 [Clomiphene citrate (Z,E)] | 64% | –
CCN(CC)CCOc1ccc(C(=C(Cl)c2ccccc2)c2ccccc2)cc1 | 70.5% | –
CCN(CC)CCOc1ccc(C(=C(Cl)c2ccccc2)c2ccccc2)cc1 [Clomiphene] | 93.6% | –
COc1ccc(NC(=O)c2ccc(-c3ccc(-c4noc(C)n4)cc3C)cc2)cc1N1CCN(C)CC1 | 87.4% | –
CN(C)[C@@H]1C(O)=C(C(=O)NCNCCCC[C@H](N)C(=O)O)C(=O)[C@@]2(O)C(O)=C3C(=O)c4c(O)cccc4[C@@](C)(O)[C@H]3C[C@@H]12 [Lymecycline] | 84.7% | –
CCCCNc1ccc(C(=O)OCCN(C)C)cc1 [Tetracaine hydrochloride] | 102% | –
COc1ccc2c(c1)CC[C@@H]1[C@@H]2CC[C@]2(C)[C@@H](NCCCCCCN3C(=O)CCC3=O)CC[C@@H]12 | 125% | –
COc1ccccc1N1CCN(CCCCNC(=O)c2ccc3ccccc3c2)CC1 | 55.3% and 76% | –
CCC1NC(=O)c2cc(S(N)(=O)=O)c(Cl)cc2N1 (stereo not given) [Quinethazone] | 117% | –
CC(O)(P(=O)(O)O)P(=O)(O)O [Etidronate] | 99.3% | –
CC(O)(P(=O)(O)O)P(=O)(O)O | 84.9% | –
CC(O)(P(=O)(O)O)P(=O)(O)O [Etidronic acid, disodium salt] | 105% | –
CC(COc1ccccc1Cc1ccccc1)N1CCCCC1 (stereo not given) | 93.6% | –
Cc1cnc(C(=O)NCCc2ccc(S(=O)(=O)NC(=O)NC3CCCCC3)cc2)cn1 [Glipizide] | 94.2 ± 10% | –
Cc1cnc(C(=O)NCCc2ccc(S(=O)(=O)NC(=O)NC3CCCCC3)cc2)cn1 | 79.7% | –
O=C(O)COCCN1CCN([C@H](c2ccccc2)c2ccc(Cl)cc2)CC1 | 115% | –
CC(C)NC[C@H](O)COc1cccc2[nH]ccc12 [S(-)-Pindolol] | 86.9% | –
O=S(=O)(O)c1cc(I)c(O)c2ncccc12 | 88.7% | –
